Results are given in words; binding and its absence hold for the method and conditions named. Binding seen in cells or lysates may run through a third protein. These calls come from enrichment with a bait or labelling near it, and not all partners need be listed.
Columns and labels:
[1] = molecular target: ZapA with a C-terminal 3xFLAG tag (Caulobacter crescentus); assay: affinity purification with mass spectrometry; CoIP-MS: FLAG-tagged bait recovered from cleared C. crescentus lysate on anti-FLAG M2 magnetic beads (10 mM HEPES KOH pH 7.5, 75 mM NaCl, 0.1% IGEPAL, 1 h, 4°C), washed three times in 0.1 M ammonium bicarbonate, LC-MS/MS; untagged NA1000 as negative control; three biological replicates
[2] = molecular target: ZauP with an N-terminal 3xFLAG tag (Caulobacter crescentus); assay: as above

Protein sequences, listed by entry. Tags and fused reporters are not part of them. Lines headed by an entry give the natural chain unless they say otherwise; changes in a name come on top.
UniProt A0A0H3CDG4: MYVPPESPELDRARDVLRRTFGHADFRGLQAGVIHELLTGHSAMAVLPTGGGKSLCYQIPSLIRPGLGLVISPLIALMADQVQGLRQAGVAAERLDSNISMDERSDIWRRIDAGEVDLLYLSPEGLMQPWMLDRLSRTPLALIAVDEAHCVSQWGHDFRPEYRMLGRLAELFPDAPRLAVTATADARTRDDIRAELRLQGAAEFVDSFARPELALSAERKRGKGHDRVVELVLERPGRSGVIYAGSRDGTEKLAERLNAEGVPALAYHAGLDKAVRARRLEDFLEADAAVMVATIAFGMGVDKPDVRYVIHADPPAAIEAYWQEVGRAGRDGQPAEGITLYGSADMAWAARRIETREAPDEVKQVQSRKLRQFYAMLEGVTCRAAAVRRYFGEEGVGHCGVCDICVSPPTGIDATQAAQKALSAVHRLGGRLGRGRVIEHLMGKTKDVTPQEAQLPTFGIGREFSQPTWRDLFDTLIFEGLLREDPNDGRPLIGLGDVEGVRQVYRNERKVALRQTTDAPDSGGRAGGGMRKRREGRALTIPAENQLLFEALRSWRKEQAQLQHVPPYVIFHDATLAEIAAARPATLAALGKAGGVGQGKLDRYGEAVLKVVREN
UniProt A0A0H3C832: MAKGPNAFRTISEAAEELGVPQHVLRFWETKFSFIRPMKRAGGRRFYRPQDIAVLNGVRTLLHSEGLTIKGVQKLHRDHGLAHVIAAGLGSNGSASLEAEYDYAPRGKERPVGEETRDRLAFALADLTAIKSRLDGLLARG
UniProt A0A0H3CD23: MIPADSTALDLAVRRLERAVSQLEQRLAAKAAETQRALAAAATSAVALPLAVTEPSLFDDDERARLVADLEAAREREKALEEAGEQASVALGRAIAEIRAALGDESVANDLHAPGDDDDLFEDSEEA
UniProt A0A0H3CCN8: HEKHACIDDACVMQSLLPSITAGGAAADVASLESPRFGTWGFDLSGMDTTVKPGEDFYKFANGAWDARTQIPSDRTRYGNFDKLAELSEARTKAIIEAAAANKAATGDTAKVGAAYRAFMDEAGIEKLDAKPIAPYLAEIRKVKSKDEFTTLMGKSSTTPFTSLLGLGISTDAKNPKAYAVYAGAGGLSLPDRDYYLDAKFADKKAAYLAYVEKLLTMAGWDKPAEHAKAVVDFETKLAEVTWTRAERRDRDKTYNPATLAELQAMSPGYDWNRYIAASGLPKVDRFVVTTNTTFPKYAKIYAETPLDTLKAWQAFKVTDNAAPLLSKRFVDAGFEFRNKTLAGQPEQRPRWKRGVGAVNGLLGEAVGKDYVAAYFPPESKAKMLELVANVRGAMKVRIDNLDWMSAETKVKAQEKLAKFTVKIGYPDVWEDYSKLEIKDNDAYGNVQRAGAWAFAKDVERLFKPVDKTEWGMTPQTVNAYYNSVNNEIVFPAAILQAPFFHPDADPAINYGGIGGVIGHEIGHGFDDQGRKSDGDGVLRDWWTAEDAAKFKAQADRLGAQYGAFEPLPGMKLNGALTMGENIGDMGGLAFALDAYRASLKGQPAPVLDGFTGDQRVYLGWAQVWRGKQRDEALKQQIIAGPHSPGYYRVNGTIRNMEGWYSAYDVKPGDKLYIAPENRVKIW
UniProt A0A0H3C997: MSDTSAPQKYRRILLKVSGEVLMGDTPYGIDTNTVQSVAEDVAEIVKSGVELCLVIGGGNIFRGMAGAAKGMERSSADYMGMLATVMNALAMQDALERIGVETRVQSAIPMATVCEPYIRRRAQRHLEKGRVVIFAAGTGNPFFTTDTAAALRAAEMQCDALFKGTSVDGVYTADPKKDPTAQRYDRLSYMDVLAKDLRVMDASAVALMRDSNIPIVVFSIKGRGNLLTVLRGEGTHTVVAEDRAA

| binding [1] | binding [2] | Substance |
| --- | --- | --- |
| binds |  | RecQ DNA helicase (CCNA_03578) (from UniProt A0A0H3CDG4) (enzyme) |
| binds | binds | ZapT (from UniProt A0A0H3C832) |
| binds |  | ZauP (from UniProt A0A0H3CD23) |
| binds |  | putative zinc metalloprotease (CCNA_03619) (from UniProt A0A0H3CCN8) (enzyme) |
| binds |  | uridylate kinase (CCNA_01998) (from UniProt A0A0H3C997) (enzyme) |

From article PMC7188993
